Results: PMC8120472
Results are given in words; binding and its absence hold for the method and conditions named. Binding seen in cells or lysates may run through a third protein. Some binding calls cover weakened binding; strength is not graded here.

Chains of the proteins cited; added tags and fusions are not shown.
UniProt P30904: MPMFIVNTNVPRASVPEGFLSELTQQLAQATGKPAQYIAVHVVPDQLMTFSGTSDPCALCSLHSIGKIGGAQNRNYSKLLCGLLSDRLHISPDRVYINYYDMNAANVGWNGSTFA

Target: T1, CD74 membrane receptor (rat (endogenous in primary joint capsule fibroblasts)) (UniProt P10247)
T1 sequence: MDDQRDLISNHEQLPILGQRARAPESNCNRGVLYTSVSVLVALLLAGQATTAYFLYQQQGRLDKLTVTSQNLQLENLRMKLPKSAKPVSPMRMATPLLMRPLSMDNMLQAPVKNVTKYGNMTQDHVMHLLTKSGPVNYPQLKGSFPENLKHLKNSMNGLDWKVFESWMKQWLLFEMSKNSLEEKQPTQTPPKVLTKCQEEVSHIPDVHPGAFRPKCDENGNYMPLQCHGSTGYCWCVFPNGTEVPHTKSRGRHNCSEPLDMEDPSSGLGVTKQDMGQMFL
Assay: co-IP; lysates (500 μg) of rat primary joint capsule fibroblasts treated with 2 μg/mL MIF for 24 h; precleared with protein A plus G-Sepharose, incubated with anti-MIF or anti-CD74 antibody at 4 °C, immunoblot with anti-MIF or anti-CD74

With “Macrophage migration inhibitory factor (from UniProt P30904 1-115) (ligand)” the binding was “binds”.
